The results in this text go back to US12178892B2 (Endocyte, Inc., priority 2013, dated 2024).

Data set [1] can be described thus: general procedure: Fmoc solid-phase peptide synthesis; Wang resin; HBTU, HOBt, DIPEA. To be noted: whole synthesis.
Data set [2] is described as follows: general procedure: Fmoc solid-phase peptide synthesis; Fmoc-L-Lys(Mtt)-Wang resin; Fmoc-Lys(Boc)-Wang resin; Trt-EDA resin; HBTU, HOBt, DIPEA. To be noted: for isolated yield: whole synthesis.

Regarding Pte-γGlu-Arg-Arg-Lys-Bn-NOTA, in data set [1] (scale 0.07 mmol), the isolated mass worked out at 35 mg and the isolated yield was 35%.

With Pte-γGlu-Asp-Arg-Arg-Lys-Bn-NOTA, the isolated yield in data set [2] was 18% yield.

Glu-Lys-AMPAA-Asp-Asp-Lys-Bn-NOTA returned an isolated yield in data set [2] of 47% yield.

Turning to “Glu-Lys-Aoc-Phe-Phe-Arg-Asp-Arg-Lys-NOTA”, in data set [2], the isolated yield is listed as 37% yield.

In turn, DUPA-EAOA-Phe-Arg-Lys-NH2-NOTA showed a conjugation yield in data set [2] (conjugation step, on QC08001) of 50%.

As for DUPA-EAOA-Phe-Phe-NOTA, the “final HPLC purity” value in data set [2] (conjugation step, 210 nm) is on record as 97%. Further, the conjugation yield in data set [2] (conjugation step, based on 8.02 mg in theory) worked out at 56%.

Pte-γGlu-Arg-Arg-Lys-NOTA: in data set [1] (scale 0.12 mmol), the isolated mass was determined as 28 mg and the isolated yield is recorded as 20%.
